Among the data in publication PMC9008841 are binding values, retold here.

Results are given in words; binding and its absence hold for the method and conditions named. A result given as binding can be weak or reduced; the word gives no strength. Sequences can lack the tags named with a protein.

The experiment deals with T1, Gal4-BD-Cdk8 (S. cerevisiae) (UniProt P39073).
T1 sequence: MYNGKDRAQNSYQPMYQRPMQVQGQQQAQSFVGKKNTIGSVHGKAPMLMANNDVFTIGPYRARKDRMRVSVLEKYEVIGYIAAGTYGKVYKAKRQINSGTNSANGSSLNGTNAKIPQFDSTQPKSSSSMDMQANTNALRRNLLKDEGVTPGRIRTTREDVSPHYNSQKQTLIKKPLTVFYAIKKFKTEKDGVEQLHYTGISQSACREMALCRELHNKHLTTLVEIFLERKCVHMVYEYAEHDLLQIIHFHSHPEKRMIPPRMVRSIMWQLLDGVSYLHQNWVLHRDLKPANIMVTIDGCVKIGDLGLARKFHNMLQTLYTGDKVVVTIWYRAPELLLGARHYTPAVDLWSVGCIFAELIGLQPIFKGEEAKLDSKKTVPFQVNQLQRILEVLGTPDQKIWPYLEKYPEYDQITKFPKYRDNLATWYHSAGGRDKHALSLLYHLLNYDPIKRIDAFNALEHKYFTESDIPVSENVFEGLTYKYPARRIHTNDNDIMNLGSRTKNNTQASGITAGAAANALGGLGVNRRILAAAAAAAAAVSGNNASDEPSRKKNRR
The experiment can be described thus: two-hybrid; Y2H Gold cells harboring Gal4-BD-Cdk8 and Gal4-AD-Rim15 subclones; read-out induction of the ADE2 and HIS3 reporter genes. A general note: In a reporter assay the amount or activity of a reporter protein is the signal.

Take “Gal4-AD-Rim15 N-terminal PAS-ZnF domain (S. cerevisiae) (domain or fragment)”: the binding entry was “binds”. Under “Gal4-AD-Rim15 C-Terminal Disordered-Regulatory domain (DDII REG) (S. cerevisiae) (domain or fragment)” stands “no binding”.
